We go through 1 molecule from patent US20110144181A1, “Pharmaceutical Compositions of Amorphous Atorvasta and Process for Preparing Same” (Warner-Lambert Company LLC, priority 2004, published 2011).

A short description of the series: Dissolution of milled extrudate in USP water (USP Type II apparatus). The class given is physicochemical. Conditions: 37° C. On the procedure: The samples were tested using a USP Type II dissolution apparatus (37° C., 50 RPM). Three samples, each containing approximately 20 mg of active ingredient, were dissolved in USP purified water. Samples were pulled at 15, 30, 45, and 60 minutes. An additional sample was pulled after the paddle speed was increased to 100 RPM for 20 minutes. The samples were filtered through a Millipore Millex GV filter (0.22 μm porosity) and analyzed via UV/Vis spectrophotometry (244 nm wavelength, 0.5 cm path length cell) using pure atorvastatin calcium as the standard.

Where a name gives a salt, the structure may show the parent alone.

For `CC(C)c1c(C(=O)Nc2ccccc2)c(-c2ccccc2)c(-c2ccc(F)cc2)n1CC[C@@H](O)C[C@@H](O)CC(=O)O` (relative stereo) [Bulk drug, [R-(R*,R*)]-2-(4-fluorophenyl)-β,δ-dihydroxy-5-(1-methylethyl)-3-phenyl-4-[(phenylamino)carbonyl]-1H-pyrrole-1-heptanoic acid calcium salt (2:1) trihydrate], the “Amount of Extrudate Dissolved in USP Water @ 15 min” value (50 RPM, approx. 20 mg active, n = 3, 15 min) is recorded as 70.2 % (w/w). The “Amount of Extrudate Dissolved in USP Water @ 30 min” value (50 RPM, approx. 20 mg active, n = 3, 30 min) was 89.8 % (w/w). In addition, the “Amount of Extrudate Dissolved in USP Water @ 45 min” value (50 RPM, approx. 20 mg active, n = 3, 45 min) is 95.9 % (w/w). For the same molecule, the “Amount of Extrudate Dissolved in USP Water @ 60 min” value (50 RPM, approx. 20 mg active, n = 3, 60 min) is listed as 97.9 % (w/w). Further, the “Amount of Extrudate Dissolved in USP Water @ 70 min” value (n = 3, 70 min, pulled after paddle speed increased to 100 RPM) is on record as 99.9 % (w/w).
